These are yes or no findings as the source states them, for the method shown. In cells and extracts the contact can be indirect. A yes stands for co-enrichment or nearness to the bait. Other partners may have been found.
Molecular target: Flag-YAP1 (UniProt P46937)
Assay: affinity purification with mass spectrometry; 6×10^8 BGC823 cells stably expressing Flag-YAP1 or control vector; anti-Flag beads overnight at 4°C; elution with Flag peptides, SDS-PAGE, bands excised, in-gel trypsin digestion, mass spectrometry

By UniProt entry, the sequences of proteins in these tests, tags left out.
UniProt P46937: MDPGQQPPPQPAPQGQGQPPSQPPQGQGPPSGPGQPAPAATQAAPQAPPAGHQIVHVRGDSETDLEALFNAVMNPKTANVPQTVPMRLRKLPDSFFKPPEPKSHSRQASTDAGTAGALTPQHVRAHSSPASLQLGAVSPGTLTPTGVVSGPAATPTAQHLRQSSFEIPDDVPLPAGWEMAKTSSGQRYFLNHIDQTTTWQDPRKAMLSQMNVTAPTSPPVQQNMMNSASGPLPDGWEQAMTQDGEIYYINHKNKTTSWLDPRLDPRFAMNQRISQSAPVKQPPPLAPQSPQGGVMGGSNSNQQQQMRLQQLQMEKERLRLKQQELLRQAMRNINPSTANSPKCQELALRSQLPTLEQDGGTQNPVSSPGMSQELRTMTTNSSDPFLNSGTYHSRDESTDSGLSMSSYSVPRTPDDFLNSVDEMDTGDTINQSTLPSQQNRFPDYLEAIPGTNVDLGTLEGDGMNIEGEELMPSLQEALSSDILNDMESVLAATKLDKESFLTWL

B1: nucleolar spindle-associated protein 1 (NUSAP1), endogenous (protein, UniProt Q9BXS6 1-441)
chain: MIIPSLEELDSLKYSDLQNLAKSLGLRANLRATKLLKALKGYIKHEARKGNENQDESQTSASSCDETEIQISNQEEAERQPLGHVTKTRRRCKTVRVDPDSQQNHSEIKISNPTEFQNHEKQESQDLRATAKVPSPPDEHQEAENAVSSGNRDSKVPSEGKKSLYTDESSKPGKNKRTAITTPNFKKLHEAHFKEMESIDQYIERKKKHFEEHNSMNELKQQPINKGGVRTPVPPRGRLSVASTPISQRRSQGRSCGPASQSTLGLKGSLKRSAISAAKTGVRFSAATKDNEHKRSLTKTPARKSAHVTVSGGTPKGEAVLGTHKLKTITGNSAAVITPFKLTTEATQTPVSNKKPVFDLKASLSRPLNYEPHKGKLKPWGQSKENNYLNQHVNRINFYKKTYKQPHLQTKEEQRKKREQERKEKKAKVLGMRRGLILAED
binding: binds

Source: paper PMC7817543
